Test results as given in PubChem BioAssay AID652054 (National Center for Advancing Translational Sciences (NCATS), 2013).
Screen size: about 360,000 compounds; about 9,100 (2.5%) were called active. Only results without a clear call are listed here; the source files them as inconclusive. Cut-off read from the data, not from the text of the source: active = max response below about -50%; inconclusive = no clear call, values can overlap the other calls; inactive = above that.
% is set by controls: 0 for no effect and ±100 for the full control effect.

Chains of the proteins cited; added tags and fusions are not shown.
UniProt P35462, whole entry: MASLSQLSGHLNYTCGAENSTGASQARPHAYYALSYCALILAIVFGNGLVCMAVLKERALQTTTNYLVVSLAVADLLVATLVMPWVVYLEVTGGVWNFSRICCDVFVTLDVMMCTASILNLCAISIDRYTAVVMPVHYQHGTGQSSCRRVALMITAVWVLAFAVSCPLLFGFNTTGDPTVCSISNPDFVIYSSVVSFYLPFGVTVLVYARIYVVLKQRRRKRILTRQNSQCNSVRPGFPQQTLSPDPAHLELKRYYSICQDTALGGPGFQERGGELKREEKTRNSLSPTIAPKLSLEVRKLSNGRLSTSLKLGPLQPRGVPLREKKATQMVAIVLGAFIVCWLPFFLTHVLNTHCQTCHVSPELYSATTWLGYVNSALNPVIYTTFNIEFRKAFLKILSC

These compounds were tested against D(3) dopamine receptor (Homo sapiens) (UniProt P35462) (assay: qHTS of D3 Dopamine Receptor Antagonist: qHTS). Conditions: D3R cells, DiscoveRx beta-arrestin luminescence, antagonist mode; stronger effect = lower value.
Description: D3 DARs represent a very important target for the treatment of several neuropsychiatric disorders. Indeed, one of the most promising therapeutic applications for the D3 DAR is in the area of addiction and related disorders. […] These findings have been observed with a number of addictive substances including cocaine, amphetamine, nicotine, and alcohol. […] Antagonism of the D3 DAR may also be therapeutic in the treatment of schizophrenia or psychosis. […] Since the D3 DAR is expressed in areas of the CNS associated with the control of mood and emotion, it has been hypothesized that selective antagonism of the D3 DAR may be effective in treating psychosis without inducing the motor side effects typically seen with D2 DAR antagonists.
This part of the project aims to discover novel antagonist.
NIH Chemical Genomics Center [NCGC]
NIH Molecular Libraries Probe Centers Network [MLPCN]
Assay Submitter (PI): David Sibley, NINDS
Freshly passaged cells are plated in 1536 well white, solid bottom plates at a density of 1500 cells/well in 3microl of complete media. After an overnight incubation at 37 degrees C in 5% CO2, cells are loaded with 23nl of test compound from the compound library (as well as dopamine controls) using a 1536 pintool and incubated at 37 degrees C for 90 minutes. Two microliters of DiscoveRx reagent is then added to all cells, and they are incubated for an additional 30 - 60 minutes at room temperature. Following incubation, luminescence is measured on a ViewLux CCD-based luminometer reader using a 20 sec exposure time.
For `Cc1ccc(Nc2c([N+](=O)[O-])cc([N+](=O)[O-])cc2[N+](=O)[O-])cc1`, the max response, negative = inhibition was inconclusive: -34.6%. In the case of `O=[N+]([O-])c1cc([N+](=O)[O-])c(NCC2CCS(=O)(=O)C2)c([N+](=O)[O-])c1` (stereo not drawn), the max response, negative = inhibition is reported as inconclusive: -46.3%. For `O=[N+]([O-])c1cc([N+](=O)[O-])c(Nc2ccc(Cl)cc2)c([N+](=O)[O-])c1`, the max response, negative = inhibition was inconclusive: -34.3%.
